In patent US8470548B2, “Diagnosis of depression” (Intra-Cellular Therapies, Inc., priority 2006, dated 2013):

Test system: p11 mRNA
Details: mice, 14 day treatment, once daily i.p., killed 1 hour after last injection

Q: With `CN1C(=O)CN=C(c2ccccc2)c2cc(Cl)ccc21` [diazepam] as the compound, how does the “p11 mRNA in the forebrain” value read?
A: The value was “not”.
